According to patent publication US5912183A (Pharmacia & Upjohn S.p.A., priority 1993, dated 1999):
Some peptides are written in HELM: one residue between dots, names in brackets for other building blocks, links after the first $.

Experiment: peptide synthesis
Conditions: whole synthesis, HPLC peak relative integration at 225 nm, polihydrated polytrifluoroacetates

PEPTIDE1{[pTyr].V.H.V.N.A.T.[pTyr].V.N.V.K}$$$$V2.0
final HPLC purity: 95.9%
